Laboratory results published in publication doi:10.1101/2020.10.07.330316.

Target: His10::TbKH (Trypanosoma brucei KHARON endogenously tagged at its N-terminus with His10) (Trypanosoma brucei) (UniProt Q38A80)
Assay: cross-linking + pull-down

For “HA3::TbKHAP1 (T. brucei KHARON associated protein 1 tagged at its N-terminus with HA3) (from UniProt Q386P9)”, the binding was “binds”.

Results are given in words; binding and its absence hold for the method and conditions named. Binding seen in cells or lysates may run through a third protein. A result given as binding can be weak or reduced; the word gives no strength.
